# The supplement of paper PMC8728848
# The list shows a part of the results.
# B1: HHL-2 (Homo sapiens), P07307 (protein)
# chain: MAKDFQDIQQLSSEENDHPFHQGEGPGTRRLNPRRGNPFLKGPPPAQPLAQRLCSMVCFSLLALSFNILLLVVICVTGSQSEGHRGAQLQAELRSLKEAFSNFSSSTLTEVQAISTHGGSVGDKITSLGAKLEKQQQDLKADHDALLFHLKHFPVDLRFVACQMELLHSNGSQRTCCPVNWVEHQGSCYWFSHSGKAWAEAEKYCQLENAHLVVINSWEEQKFIVQHTNPFNTWIGLTDSDGSWKWVDGTDYRHNYKNWAVTQPDNWHGHELGGSEDCVEVQPDGRWNDDFCLQVYRWVCEKRRNATGEVA
# How the values were obtained:
# Test in all cases: glycan array binding signal (z-score within array); higher = stronger binding
# Settings in all cases: glycan notation: IUPAC condensed, linker removed
# [1] = target: Fuc(a1-2)[Gal(a1-3)]Gal(b1-4)GlcNAc(b1-2)Man(a1-3)[Fuc(a1-2)[Gal(a1-3)]Gal(b1-4)GlcNAc(b1-2)Man(a1-6)]Man(b1-4)GlcNAc(b1-4)GlcNAc
# Method in brief: (§1)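 Columns mapping to the same glycan were averaged after glycan names were converted to IUPAC-condensed notation. The data come from 3228 arrays in the Consortium for Functional Glycomics database, limited to those with an available protein sequence. Binding is reported as a within-array Z-score averaged across arrays of one protein sequence and across linkers.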
# [2] = target: Fuc(a1-2)[Gal(a1-3)]Gal(b1-4)[Fuc(a1-3)]GlcNAc
# Method in brief: as §1
# [3] = target: Fuc(a1-2)[Gal(a1-4)]Gal(b1-4)GlcNAc
# Method in brief: as §1
# [4] = target: Fuc(a1-2)[GalNAc(a1-3)]Gal
# Method in brief: as §1
# [5] = target: Fuc(a1-2)[GalNAc(a1-3)]Gal(b1-3)GlcNAc
# Method in brief: as §1
# [6] = target: Fuc(a1-2)[GalNAc(a1-3)]Gal(b1-3)GlcNAc(b1-2)Man(a1-3)[Fuc(a1-2)[GalNAc(a1-3)]Gal(b1-3)GlcNAc(b1-2)Man(a1-6)]Man(b1-4)GlcNAc(b1-4)GlcNAc
# Method in brief: as §1
# [7] = target: Fuc(a1-2)[GalNAc(a1-3)]Gal(b1-4)Glc
# Method in brief: as §1
# [8] = target: Fuc(a1-2)[GalNAc(a1-3)]Gal(b1-4)GlcNAc
# Method in brief: as §1
# [9] = target: Fuc(a1-2)[GalNAc(a1-3)]Gal(b1-4)GlcNAc(b1-2)Man(a1-3)[GalNAc(a1-3)[Fuc(a1-2)]Gal(b1-4)GlcNAc(b1-2)Man(a1-6)]Man(b1-4)GlcNAc(b1-4)GlcNAc
# Method in brief: as §1
# [10] = target: Fuc(a1-2)[GalNAc(a1-3)]Gal(b1-4)GlcNAc(b1-3)Gal(b1-4)GlcNAc
# Method in brief: as §1
# [11] = target: Fuc(a1-2)[GalNAc(a1-3)]Gal(b1-4)GlcNAc(b1-3)Gal(b1-4)GlcNAc(b1-3)Gal(b1-4)GlcNAc
# Method in brief: as §1
# [12] = target: Fuc(a1-2)[GalNAc(a1-3)]Gal(b1-4)[Fuc(a1-3)]GlcNAc
# Method in brief: as §1
# [13] = target: Fuc(a1-2)[GalNAc(a1-4)]Gal(b1-4)GlcNAc
# Method in brief: as §1
# [14] = target: Fuc(a1-2)[GalNAc(b1-3)]Gal
# Method in brief: as §1
# Fuc(a1-3)GlcNAc = target: Fuc(a1-3)GlcNAc
# Method in brief: as §1
# [15] = target: Fuc(a1-3)[Gal(b1-4)]Glc6S
# Method in brief: as §1
# [16] = target: Fuc(a1-3)[Gal(b1-4)]GlcNAc
# Method in brief: as §1
# [17] = target: Fuc(a1-3)[Gal(b1-4)]GlcNAc(b1-2)Man(a1-3)[Fuc(a1-3)[Gal(b1-4)]GlcNAc(b1-2)Man(a1-6)]Man(b1-4)GlcNAc(b1-4)GlcNAc
# Method in brief: as §1
# [18] = target: Fuc(a1-3)[Gal(b1-4)]GlcNAc(b1-2)Man(a1-6)[Gal(b1-4)GlcNAc(b1-2)Man(a1-3)]Man(b1-4)GlcNAc(b1-4)GlcNAc
# Method in brief: as §1
# [19] = target: Fuc(a1-3)[Gal(b1-4)]GlcNAc(b1-3)Gal(b1-3)[Fuc(a1-4)]GlcNAc
# Method in brief: as §1
# [20] = target: Fuc(a1-3)[Gal(b1-4)]GlcNAc(b1-4)Gal(b1-4)[Fuc(a1-3)]GlcNAc
# Method in brief: as §1
# [21] = target: Fuc(a1-3)[Gal(b1-4)]GlcNAc(b1-4)Gal(b1-4)[Fuc(a1-3)]GlcNAc(b1-4)Gal(b1-4)[Fuc(a1-3)]GlcNAc
# Method in brief: as §1
# [22] = target: Fuc(a1-3)[Gal(b1-4)]GlcNAc6S
# Method in brief: as §1
# [23] = target: Fuc(a1-3)[Gal3S(b1-4)]Glc6S
# Method in brief: as §1
# [24] = target: Fuc(a1-3)[Gal3S(b1-4)]GlcNAc
# Method in brief: as §1
# [25] = target: Fuc(a1-3)[Gal3S(b1-4)]GlcNAc6S
# Method in brief: as §1
# [26] = target: Fuc(a1-3)[GalNAc(b1-4)]GlcNAc
# Method in brief: as §1
# [27] = target: Fuc(a1-3)[Neu5Ac(a2-3)]Gal(b1-4)GlcNAc(b1-3)GalNAc
# Method in brief: as §1
# Fuc(a1-4)GlcNAc = target: Fuc(a1-4)GlcNAc
# Method in brief: as §1
# Fuc(b1-3)GlcNAc = target: Fuc(b1-3)GlcNAc
# Method in brief: as §1
# Gal(a1-2)Gal = target: Gal(a1-2)Gal
# Method in brief: as §1
# Gal(a1-3)Gal = target: Gal(a1-3)Gal
# Method in brief: as §1
# Gal(a1-3)Gal(b1-3)GlcNAc = target: Gal(a1-3)Gal(b1-3)GlcNAc
# Method in brief: as §1
# Gal(a1-3)Gal(b1-4)Glc = target: Gal(a1-3)Gal(b1-4)Glc
# Method in brief: as §1
# Gal(a1-3)Gal(b1-4)GlcNAc = target: Gal(a1-3)Gal(b1-4)GlcNAc
# Method in brief: as §1
# [28] = target: Gal(a1-3)Gal(b1-4)[Fuc(a1-3)]GlcNAc
# Method in brief: as §1
# [29] = target: Gal(a1-3)Gal(b1-4)[Fuc(a1-3)]GlcNAc(b1-2)Man(a1-3)[Gal(a1-3)Gal(b1-4)[Fuc(a1-3)]GlcNAc(b1-2)Man(a1-6)]Man(b1-4)GlcNAc(b1-4)GlcNAc
# Method in brief: as §1
binder,measurement,setting,value
B1,glycan array binding signal (z-score),[1],-0.605
same,glycan array binding signal (z-score),[2],-0.086
same,glycan array binding signal (z-score),[3],-0.728
same,glycan array binding signal (z-score),[4],-0.571
same,glycan array binding signal (z-score),[5],-0.07
same,glycan array binding signal (z-score),[6],-0.339
same,glycan array binding signal (z-score),[7],-0.657
same,glycan array binding signal (z-score),[8],-0.68
same,glycan array binding signal (z-score),[9],-0.298
same,glycan array binding signal (z-score),[10],-0.24
same,glycan array binding signal (z-score),[11],0.423
same,glycan array binding signal (z-score),[12],-0.236
same,glycan array binding signal (z-score),[13],0.84
same,glycan array binding signal (z-score),[14],0.113
same,glycan array binding signal (z-score),Fuc(a1-3)GlcNAc,-0.026
same,glycan array binding signal (z-score),[15],-0.062
same,glycan array binding signal (z-score),[16],-0.276
same,glycan array binding signal (z-score),[17],0.278
same,glycan array binding signal (z-score),[18],-0.987
same,glycan array binding signal (z-score),[19],-0.559
same,glycan array binding signal (z-score),[20],-0.334
same,glycan array binding signal (z-score),[21],0.267
same,glycan array binding signal (z-score),[22],-0.074
same,glycan array binding signal (z-score),[23],-0.68
same,glycan array binding signal (z-score),[24],0.06
same,glycan array binding signal (z-score),[25],0.079
same,glycan array binding signal (z-score),[26],-0.451
same,glycan array binding signal (z-score),[27],6.72
same,glycan array binding signal (z-score),Fuc(a1-4)GlcNAc,0.449
same,glycan array binding signal (z-score),Fuc(b1-3)GlcNAc,-0.563
same,glycan array binding signal (z-score),Gal(a1-2)Gal,-0.135
same,glycan array binding signal (z-score),Gal(a1-3)Gal,-0.286
same,glycan array binding signal (z-score),Gal(a1-3)Gal(b1-3)GlcNAc,-0.915
same,glycan array binding signal (z-score),Gal(a1-3)Gal(b1-4)Glc,-0.398
same,glycan array binding signal (z-score),Gal(a1-3)Gal(b1-4)GlcNAc,-0.356
same,glycan array binding signal (z-score),[28],-0.784
same,glycan array binding signal (z-score),[29],-0.354

# Looked up one by one from the list above, two records:
binder,measurement,setting,value
B1,glycan array binding signal (z-score),Gal(a1-3)Gal(b1-3)GlcNAc,-0.915
same,glycan array binding signal (z-score),[20],-0.334
